From publication PMC6770463
These are yes or no findings as the source states them, for the method shown. For some of these results: Binding seen in cells or lysates may run through a third protein. Some results given as binding are weak or reduced against the parent protein; the word gives no strength.

The chains behind the UniProt entries cited, without tags or fusion partners.
UniProt Q07666: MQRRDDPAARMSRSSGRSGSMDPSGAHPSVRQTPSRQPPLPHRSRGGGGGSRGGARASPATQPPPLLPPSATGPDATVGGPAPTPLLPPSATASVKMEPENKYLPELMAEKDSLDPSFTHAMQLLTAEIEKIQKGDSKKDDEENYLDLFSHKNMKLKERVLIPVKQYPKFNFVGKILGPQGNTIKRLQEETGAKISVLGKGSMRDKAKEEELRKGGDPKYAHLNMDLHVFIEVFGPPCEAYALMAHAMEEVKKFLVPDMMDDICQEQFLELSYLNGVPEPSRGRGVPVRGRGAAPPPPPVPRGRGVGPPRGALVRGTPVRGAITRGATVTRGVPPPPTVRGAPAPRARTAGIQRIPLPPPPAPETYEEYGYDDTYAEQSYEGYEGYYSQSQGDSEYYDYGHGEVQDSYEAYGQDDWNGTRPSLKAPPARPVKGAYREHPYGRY

T1: pLexA-DIR-metadherin-aa73-582 (UniProt Q86UE4)
T1 sequence: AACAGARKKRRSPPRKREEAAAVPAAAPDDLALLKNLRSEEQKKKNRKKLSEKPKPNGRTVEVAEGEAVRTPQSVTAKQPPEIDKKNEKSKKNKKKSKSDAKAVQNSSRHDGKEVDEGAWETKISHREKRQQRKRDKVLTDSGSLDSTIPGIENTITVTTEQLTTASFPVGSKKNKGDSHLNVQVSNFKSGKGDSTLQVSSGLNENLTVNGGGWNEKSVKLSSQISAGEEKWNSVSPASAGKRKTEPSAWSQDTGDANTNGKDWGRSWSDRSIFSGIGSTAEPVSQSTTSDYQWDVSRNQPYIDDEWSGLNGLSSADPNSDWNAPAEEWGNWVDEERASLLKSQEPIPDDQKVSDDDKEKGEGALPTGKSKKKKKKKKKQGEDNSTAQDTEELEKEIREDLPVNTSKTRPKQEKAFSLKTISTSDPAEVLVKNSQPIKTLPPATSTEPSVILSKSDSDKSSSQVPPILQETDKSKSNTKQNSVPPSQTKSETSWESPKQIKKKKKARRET

T2: endogenous metadherin (LNCaP) (human (endogenous in LNCaP)) (UniProt Q86UE4)
T2 sequence: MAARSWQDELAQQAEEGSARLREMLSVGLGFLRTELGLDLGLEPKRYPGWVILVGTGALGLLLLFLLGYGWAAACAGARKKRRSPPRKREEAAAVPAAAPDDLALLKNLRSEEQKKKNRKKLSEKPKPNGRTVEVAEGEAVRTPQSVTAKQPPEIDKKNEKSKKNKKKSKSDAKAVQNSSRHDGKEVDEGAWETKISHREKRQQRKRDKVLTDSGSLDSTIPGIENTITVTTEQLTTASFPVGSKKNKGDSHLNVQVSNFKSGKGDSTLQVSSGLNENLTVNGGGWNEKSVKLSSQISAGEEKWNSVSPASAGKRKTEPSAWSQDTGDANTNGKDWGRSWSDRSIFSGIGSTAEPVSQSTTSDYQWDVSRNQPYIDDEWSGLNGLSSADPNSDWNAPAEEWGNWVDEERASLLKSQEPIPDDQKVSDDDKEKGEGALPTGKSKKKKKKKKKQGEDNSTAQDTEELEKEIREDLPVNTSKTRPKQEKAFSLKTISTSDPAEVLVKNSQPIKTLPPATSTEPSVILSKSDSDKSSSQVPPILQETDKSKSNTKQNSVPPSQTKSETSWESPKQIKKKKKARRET


Columns and labels:
[1] = target: T1, pLexA-DIR-metadherin-aa73-582; experiment: two-hybrid; bait pLexA-DIR-metadherin-aa73-582, prey a human placental cDNA library; beta-galactosidase assay; done by Dualsystems Biotech AG
[2] = target: endogenous Sam68 (LNCaP) (human (endogenous in LNCaP)) (UniProt Q07666); experiment: co-IP; endogenous SAM68 precipitated with an anti-SAM68 antibody from 1 mg LNCaP protein lysate, 4 °C; rabbit IgG as negative control
[3] = target: T2, endogenous metadherin (LNCaP) (human (endogenous in LNCaP)); experiment: co-IP; endogenous metadherin precipitated from 1 mg LNCaP whole cell lysate, 4 °C; rabbit IgG as negative control

| binding [1] | binding [2] | binding [3] | Molecule |
| --- | --- | --- | --- |
| binds | – | – | YTHDC1 aa54-355 (clone from the human placental cDNA library) (from UniProt Q96MU7 54-355) (domain or fragment) |
| – | binds | – | endogenous metadherin (LNCaP) (protein, UniProt Q86UE4 1-582) MAARSWQDELAQQAEEGSARLREMLSVGLGFLRTELGLDLGLEPKRYPGWVILVGTGALGLLLLFLLGYGWAAACAGARKKRRSPPRKREEAAAVPAAAPDDLALLKNLRSEEQKKKNRKKLSEKPKPNGRTVEVAEGEAVRTPQSVTAKQPPEIDKKNEKSKKNKKKSKSDAKAVQNSSRHDGKEVDEGAWETKISHREKRQQRKRDKVLTDSGSLDSTIPGIENTITVTTEQLTTASFPVGSKKNKGDSHLNVQVSNFKSGKGDSTLQVSSGLNENLTVNGGGWNEKSVKLSSQISAGEEKWNSVSPASAGKRKTEPSAWSQDTGDANTNGKDWGRSWSDRSIFSGIGSTAEPVSQSTTSDYQWDVSRNQPYIDDEWSGLNGLSSADPNSDWNAPAEEWGNWVDEERASLLKSQEPIPDDQKVSDDDKEKGEGALPTGKSKKKKKKKKKQGEDNSTAQDTEELEKEIREDLPVNTSKTRPKQEKAFSLKTISTSDPAEVLVKNSQPIKTLPPATSTEPSVILSKSDSDKSSSQVPPILQETDKSKSNTKQNSVPPSQTKSETSWESPKQIKKKKKARRET |
| – | binds | binds | endogenous T-STAR (LNCaP) (protein, UniProt O75525 1-346) MEEKYLPELMAEKDSLDPSFTHALRLVNQEIEKFQKGEGKDEEKYIDVVINKNMKLGQKVLIPVKQFPKFNFVGKLLGPRGNSLKRLQEETLTKMSILGKGSMRDKAKEEELRKSGEAKYFHLNDDLHVLIEVFAPPAEAYARMGHALEEIKKFLIPDYNDEIRQAQLQELTYLNGGSENADVPVVRGKPTLRTRGVPAPAITRGRGGVTARPVGVVVPRGTPTPRGVLSTRGPVSRGRGLLTPRARGVPPTGYRPPPPPPTQETYGEYDYDDGYGTAYDEQSYDSYDNSYSTPAQSGADYYDYGHGLSEETYDSYGQEEWTNSRHKAPSARTAKGVYRDQPYGRY |
